Results deposited as PubChem BioAssay AID1508597 (Cure First, 2020)
In all, the deposit lists about 2,100 reagents; below is a part drawn at random. 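Calls flag viability under 80% in either arm, not effects specific to rucaparib; the reference for percent is not stated.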 A number with no mark means an inactive call. Some reagents were tested in more than one well and are listed for each. Not stated in the record: the 100% reference.

- Assay: 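Survival screen with siRNA in ovarian cancer cells derived from patients, with or without rucaparib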 (primary screen)
- Cell system: human ovarian carcinoma lines grown from tumours: OCI-P5x (papillary serous) and OCI-C5x (clear cell)
- Reagent: siRNA pool against human genes, 1.25 pmol siRNA per well
- Timing: 72 h or 96 h, depending on the cell culture
- Conditions: rucaparib 20 µM (about IC30) or vehicle, present until read-out
- Measurement: 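Luminescent ATP-based viability assay read 72 or 96 h after transfection, depending on culture, given as normalised percent viability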
- Scale: viability, normalised: higher = more viable cells remaining
- Call rule: 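a well counts as a hit if its normalised viability is under 80 percent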
- Meaning of the calls: active = viability under 80%; inactive = viability 80% or more

{"gene symbol": "PRDM2 (GeneID 7799)", "rucaparib or vehicle": "Rucaparib", "cell line": "OCI-C5x (clear cell)", "technical replicate": "1", "viability, normalised (%)": "41.3 (active)"}
{"gene symbol": "PRDM2 (GeneID 7799)", "rucaparib or vehicle": "Rucaparib", "cell line": "OCI-C5x (clear cell)", "technical replicate": "2", "viability, normalised (%)": "41.5 (active)"}
{"gene symbol": "PRDM2 (GeneID 7799)", "rucaparib or vehicle": "Rucaparib", "cell line": "OCI-C5x (clear cell)", "technical replicate": "3", "viability, normalised (%)": "42.1 (active)"}
{"gene symbol": "PRDM2 (GeneID 7799)", "rucaparib or vehicle": "Rucaparib", "cell line": "OCI-P5x (serous)", "technical replicate": "1", "viability, normalised (%)": "48 (active)"}
{"gene symbol": "PRDM2 (GeneID 7799)", "rucaparib or vehicle": "Rucaparib", "cell line": "OCI-P5x (serous)", "technical replicate": "2", "viability, normalised (%)": "58 (active)"}
{"gene symbol": "PRDM2 (GeneID 7799)", "rucaparib or vehicle": "Rucaparib", "cell line": "OCI-P5x (serous)", "technical replicate": "3", "viability, normalised (%)": "45 (active)"}
{"gene symbol": "PRDM2 (GeneID 7799)", "rucaparib or vehicle": "Vehicle", "cell line": "OCI-C5x (clear cell)", "technical replicate": "1", "viability, normalised (%)": "39.5 (active)"}
{"gene symbol": "PRDM2 (GeneID 7799)", "rucaparib or vehicle": "Vehicle", "cell line": "OCI-C5x (clear cell)", "technical replicate": "2", "viability, normalised (%)": "47.1 (active)"}
{"gene symbol": "PRDM2 (GeneID 7799)", "rucaparib or vehicle": "Vehicle", "cell line": "OCI-C5x (clear cell)", "technical replicate": "3", "viability, normalised (%)": "36.7 (active)"}
{"gene symbol": "PRDM2 (GeneID 7799)", "rucaparib or vehicle": "Vehicle", "cell line": "OCI-P5x (serous)", "technical replicate": "1", "viability, normalised (%)": "63.5 (active)"}
{"gene symbol": "PRDM2 (GeneID 7799)", "rucaparib or vehicle": "Vehicle", "cell line": "OCI-P5x (serous)", "technical replicate": "2", "viability, normalised (%)": "27 (active)"}
{"gene symbol": "PRDM2 (GeneID 7799)", "rucaparib or vehicle": "Vehicle", "cell line": "OCI-P5x (serous)", "technical replicate": "3", "viability, normalised (%)": 86.1}
{"gene symbol": "CHEK2 (GeneID 11200)", "rucaparib or vehicle": "Rucaparib", "cell line": "OCI-C5x (clear cell)", "technical replicate": "1", "viability, normalised (%)": "65.2 (active)"}
{"gene symbol": "CHEK2 (GeneID 11200)", "rucaparib or vehicle": "Rucaparib", "cell line": "OCI-C5x (clear cell)", "technical replicate": "1", "viability, normalised (%)": "62.6 (active)"}
{"gene symbol": "CHEK2 (GeneID 11200)", "rucaparib or vehicle": "Rucaparib", "cell line": "OCI-C5x (clear cell)", "technical replicate": "2", "viability, normalised (%)": "69.6 (active)"}
{"gene symbol": "CHEK2 (GeneID 11200)", "rucaparib or vehicle": "Rucaparib", "cell line": "OCI-C5x (clear cell)", "technical replicate": "2", "viability, normalised (%)": "45.7 (active)"}
{"gene symbol": "CHEK2 (GeneID 11200)", "rucaparib or vehicle": "Rucaparib", "cell line": "OCI-C5x (clear cell)", "technical replicate": "3", "viability, normalised (%)": "62.2 (active)"}
{"gene symbol": "CHEK2 (GeneID 11200)", "rucaparib or vehicle": "Rucaparib", "cell line": "OCI-C5x (clear cell)", "technical replicate": "3", "viability, normalised (%)": "64.7 (active)"}
{"gene symbol": "CHEK2 (GeneID 11200)", "rucaparib or vehicle": "Rucaparib", "cell line": "OCI-P5x (serous)", "technical replicate": "1", "viability, normalised (%)": 80.5}
{"gene symbol": "CHEK2 (GeneID 11200)", "rucaparib or vehicle": "Rucaparib", "cell line": "OCI-P5x (serous)", "technical replicate": "1", "viability, normalised (%)": 124}
{"gene symbol": "CHEK2 (GeneID 11200)", "rucaparib or vehicle": "Rucaparib", "cell line": "OCI-P5x (serous)", "technical replicate": "2", "viability, normalised (%)": 124}
{"gene symbol": "CHEK2 (GeneID 11200)", "rucaparib or vehicle": "Rucaparib", "cell line": "OCI-P5x (serous)", "technical replicate": "2", "viability, normalised (%)": 83.2}
{"gene symbol": "CHEK2 (GeneID 11200)", "rucaparib or vehicle": "Rucaparib", "cell line": "OCI-P5x (serous)", "technical replicate": "3", "viability, normalised (%)": "60.5 (active)"}
{"gene symbol": "CHEK2 (GeneID 11200)", "rucaparib or vehicle": "Rucaparib", "cell line": "OCI-P5x (serous)", "technical replicate": "3", "viability, normalised (%)": 107}
{"gene symbol": "CHEK2 (GeneID 11200)", "rucaparib or vehicle": "Vehicle", "cell line": "OCI-C5x (clear cell)", "technical replicate": "1", "viability, normalised (%)": "47.1 (active)"}
{"gene symbol": "CHEK2 (GeneID 11200)", "rucaparib or vehicle": "Vehicle", "cell line": "OCI-C5x (clear cell)", "technical replicate": "1", "viability, normalised (%)": "68.5 (active)"}
{"gene symbol": "CHEK2 (GeneID 11200)", "rucaparib or vehicle": "Vehicle", "cell line": "OCI-C5x (clear cell)", "technical replicate": "2", "viability, normalised (%)": "67 (active)"}
{"gene symbol": "CHEK2 (GeneID 11200)", "rucaparib or vehicle": "Vehicle", "cell line": "OCI-C5x (clear cell)", "technical replicate": "2", "viability, normalised (%)": "57.7 (active)"}
{"gene symbol": "CHEK2 (GeneID 11200)", "rucaparib or vehicle": "Vehicle", "cell line": "OCI-C5x (clear cell)", "technical replicate": "3", "viability, normalised (%)": "63.9 (active)"}
{"gene symbol": "CHEK2 (GeneID 11200)", "rucaparib or vehicle": "Vehicle", "cell line": "OCI-C5x (clear cell)", "technical replicate": "3", "viability, normalised (%)": "68.9 (active)"}
{"gene symbol": "CHEK2 (GeneID 11200)", "rucaparib or vehicle": "Vehicle", "cell line": "OCI-P5x (serous)", "technical replicate": "1", "viability, normalised (%)": "62.8 (active)"}
{"gene symbol": "CHEK2 (GeneID 11200)", "rucaparib or vehicle": "Vehicle", "cell line": "OCI-P5x (serous)", "technical replicate": "1", "viability, normalised (%)": 94.9}
{"gene symbol": "CHEK2 (GeneID 11200)", "rucaparib or vehicle": "Vehicle", "cell line": "OCI-P5x (serous)", "technical replicate": "2", "viability, normalised (%)": "62.5 (active)"}
{"gene symbol": "CHEK2 (GeneID 11200)", "rucaparib or vehicle": "Vehicle", "cell line": "OCI-P5x (serous)", "technical replicate": "2", "viability, normalised (%)": 103}
{"gene symbol": "CHEK2 (GeneID 11200)", "rucaparib or vehicle": "Vehicle", "cell line": "OCI-P5x (serous)", "technical replicate": "3", "viability, normalised (%)": "71.8 (active)"}
{"gene symbol": "CHEK2 (GeneID 11200)", "rucaparib or vehicle": "Vehicle", "cell line": "OCI-P5x (serous)", "technical replicate": "3", "viability, normalised (%)": "63.3 (active)"}
{"gene symbol": "PKN1 (GeneID 5585)", "rucaparib or vehicle": "Rucaparib", "cell line": "OCI-C5x (clear cell)", "technical replicate": "1", "viability, normalised (%)": "66.4 (active)"}
{"gene symbol": "PKN1 (GeneID 5585)", "rucaparib or vehicle": "Rucaparib", "cell line": "OCI-C5x (clear cell)", "technical replicate": "1", "viability, normalised (%)": "51.5 (active)"}
{"gene symbol": "PKN1 (GeneID 5585)", "rucaparib or vehicle": "Rucaparib", "cell line": "OCI-C5x (clear cell)", "technical replicate": "1", "viability, normalised (%)": "57.4 (active)"}
{"gene symbol": "PKN1 (GeneID 5585)", "rucaparib or vehicle": "Rucaparib", "cell line": "OCI-C5x (clear cell)", "technical replicate": "2", "viability, normalised (%)": "58.9 (active)"}
{"gene symbol": "PKN1 (GeneID 5585)", "rucaparib or vehicle": "Rucaparib", "cell line": "OCI-C5x (clear cell)", "technical replicate": "2", "viability, normalised (%)": "51.7 (active)"}
{"gene symbol": "PKN1 (GeneID 5585)", "rucaparib or vehicle": "Rucaparib", "cell line": "OCI-C5x (clear cell)", "technical replicate": "2", "viability, normalised (%)": 106}
{"gene symbol": "PKN1 (GeneID 5585)", "rucaparib or vehicle": "Rucaparib", "cell line": "OCI-C5x (clear cell)", "technical replicate": "3", "viability, normalised (%)": "49.3 (active)"}
{"gene symbol": "PKN1 (GeneID 5585)", "rucaparib or vehicle": "Rucaparib", "cell line": "OCI-C5x (clear cell)", "technical replicate": "3", "viability, normalised (%)": "75 (active)"}
{"gene symbol": "PKN1 (GeneID 5585)", "rucaparib or vehicle": "Rucaparib", "cell line": "OCI-C5x (clear cell)", "technical replicate": "3", "viability, normalised (%)": "52.5 (active)"}
{"gene symbol": "PKN1 (GeneID 5585)", "rucaparib or vehicle": "Rucaparib", "cell line": "OCI-P5x (serous)", "technical replicate": "1", "viability, normalised (%)": "43.8 (active)"}
{"gene symbol": "PKN1 (GeneID 5585)", "rucaparib or vehicle": "Rucaparib", "cell line": "OCI-P5x (serous)", "technical replicate": "1", "viability, normalised (%)": 87.8}
{"gene symbol": "PKN1 (GeneID 5585)", "rucaparib or vehicle": "Rucaparib", "cell line": "OCI-P5x (serous)", "technical replicate": "1", "viability, normalised (%)": 106}
{"gene symbol": "PKN1 (GeneID 5585)", "rucaparib or vehicle": "Rucaparib", "cell line": "OCI-P5x (serous)", "technical replicate": "2", "viability, normalised (%)": 90.1}
{"gene symbol": "PKN1 (GeneID 5585)", "rucaparib or vehicle": "Rucaparib", "cell line": "OCI-P5x (serous)", "technical replicate": "2", "viability, normalised (%)": "39.6 (active)"}
{"gene symbol": "PKN1 (GeneID 5585)", "rucaparib or vehicle": "Rucaparib", "cell line": "OCI-P5x (serous)", "technical replicate": "2", "viability, normalised (%)": 98.2}
{"gene symbol": "PKN1 (GeneID 5585)", "rucaparib or vehicle": "Rucaparib", "cell line": "OCI-P5x (serous)", "technical replicate": "3", "viability, normalised (%)": 110}
{"gene symbol": "PKN1 (GeneID 5585)", "rucaparib or vehicle": "Rucaparib", "cell line": "OCI-P5x (serous)", "technical replicate": "3", "viability, normalised (%)": "51.9 (active)"}
{"gene symbol": "PKN1 (GeneID 5585)", "rucaparib or vehicle": "Rucaparib", "cell line": "OCI-P5x (serous)", "technical replicate": "3", "viability, normalised (%)": 83.7}
{"gene symbol": "PKN1 (GeneID 5585)", "rucaparib or vehicle": "Vehicle", "cell line": "OCI-C5x (clear cell)", "technical replicate": "1", "viability, normalised (%)": "70.3 (active)"}
{"gene symbol": "PKN1 (GeneID 5585)", "rucaparib or vehicle": "Vehicle", "cell line": "OCI-C5x (clear cell)", "technical replicate": "1", "viability, normalised (%)": "67.3 (active)"}
{"gene symbol": "PKN1 (GeneID 5585)", "rucaparib or vehicle": "Vehicle", "cell line": "OCI-C5x (clear cell)", "technical replicate": "1", "viability, normalised (%)": "47.8 (active)"}
{"gene symbol": "PKN1 (GeneID 5585)", "rucaparib or vehicle": "Vehicle", "cell line": "OCI-C5x (clear cell)", "technical replicate": "2", "viability, normalised (%)": "53 (active)"}
{"gene symbol": "PKN1 (GeneID 5585)", "rucaparib or vehicle": "Vehicle", "cell line": "OCI-C5x (clear cell)", "technical replicate": "2", "viability, normalised (%)": "78 (active)"}
{"gene symbol": "PKN1 (GeneID 5585)", "rucaparib or vehicle": "Vehicle", "cell line": "OCI-C5x (clear cell)", "technical replicate": "2", "viability, normalised (%)": "40.6 (active)"}
{"gene symbol": "PKN1 (GeneID 5585)", "rucaparib or vehicle": "Vehicle", "cell line": "OCI-C5x (clear cell)", "technical replicate": "3", "viability, normalised (%)": "66.7 (active)"}
{"gene symbol": "PKN1 (GeneID 5585)", "rucaparib or vehicle": "Vehicle", "cell line": "OCI-C5x (clear cell)", "technical replicate": "3", "viability, normalised (%)": "33.3 (active)"}
{"gene symbol": "PKN1 (GeneID 5585)", "rucaparib or vehicle": "Vehicle", "cell line": "OCI-C5x (clear cell)", "technical replicate": "3", "viability, normalised (%)": "73.9 (active)"}
{"gene symbol": "PKN1 (GeneID 5585)", "rucaparib or vehicle": "Vehicle", "cell line": "OCI-P5x (serous)", "technical replicate": "1", "viability, normalised (%)": "51.6 (active)"}
{"gene symbol": "PKN1 (GeneID 5585)", "rucaparib or vehicle": "Vehicle", "cell line": "OCI-P5x (serous)", "technical replicate": "1", "viability, normalised (%)": 98.3}
{"gene symbol": "PKN1 (GeneID 5585)", "rucaparib or vehicle": "Vehicle", "cell line": "OCI-P5x (serous)", "technical replicate": "1", "viability, normalised (%)": 111}
{"gene symbol": "PKN1 (GeneID 5585)", "rucaparib or vehicle": "Vehicle", "cell line": "OCI-P5x (serous)", "technical replicate": "2", "viability, normalised (%)": "73.9 (active)"}
{"gene symbol": "PKN1 (GeneID 5585)", "rucaparib or vehicle": "Vehicle", "cell line": "OCI-P5x (serous)", "technical replicate": "2", "viability, normalised (%)": "33.1 (active)"}
{"gene symbol": "PKN1 (GeneID 5585)", "rucaparib or vehicle": "Vehicle", "cell line": "OCI-P5x (serous)", "technical replicate": "2", "viability, normalised (%)": 101}
{"gene symbol": "PKN1 (GeneID 5585)", "rucaparib or vehicle": "Vehicle", "cell line": "OCI-P5x (serous)", "technical replicate": "3", "viability, normalised (%)": "67.2 (active)"}
{"gene symbol": "PKN1 (GeneID 5585)", "rucaparib or vehicle": "Vehicle", "cell line": "OCI-P5x (serous)", "technical replicate": "3", "viability, normalised (%)": 101}
{"gene symbol": "PKN1 (GeneID 5585)", "rucaparib or vehicle": "Vehicle", "cell line": "OCI-P5x (serous)", "technical replicate": "3", "viability, normalised (%)": 93.6}

Laid out differently: results already given.
gene symbol,rucaparib or vehicle,cell line,technical replicate,"viability, normalised (%)"
CHEK2 (GeneID 11200),Rucaparib,OCI-P5x (serous),2,83.2
CHEK2 (GeneID 11200),Rucaparib,OCI-P5x (serous),3,60.5 (active)
CHEK2 (GeneID 11200),Rucaparib,OCI-P5x (serous),3,107
CHEK2 (GeneID 11200),Vehicle,OCI-C5x (clear cell),1,47.1 (active)
CHEK2 (GeneID 11200),Vehicle,OCI-C5x (clear cell),1,68.5 (active)
CHEK2 (GeneID 11200),Vehicle,OCI-C5x (clear cell),2,67 (active)
CHEK2 (GeneID 11200),Vehicle,OCI-C5x (clear cell),2,57.7 (active)
CHEK2 (GeneID 11200),Vehicle,OCI-C5x (clear cell),3,63.9 (active)
CHEK2 (GeneID 11200),Vehicle,OCI-C5x (clear cell),3,68.9 (active)
CHEK2 (GeneID 11200),Vehicle,OCI-P5x (serous),1,62.8 (active)
CHEK2 (GeneID 11200),Vehicle,OCI-P5x (serous),1,94.9
